Values from PubChem BioAssay AID1259405 (NCATS, 2018).

- Purpose: 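Silenced genes that increase secreted GFP made by CHO cells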 (primary screen)
- System: Chinese hamster CHO-K1 ovary cells with stable secreted eGFP expression
- Reagent: single siRNA against mouse genes, 0.8 pmol siRNA per well (2 µl of 400 nM stock)
- Duration: 3 days
- Measured: 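Per-well intracellular GFP measured by laser scanning cytometry, plus viability from ATP luminescence, each relative to plate median of non-targeting control wells, in %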
- Scale: GFP, % of control: higher = more GFP per well, higher productivity; viability (ATP), % of control: higher = more viable cells (more ATP)
- Hit rule: 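Called active when intracellular GFP, relative to negative control, is at or above 120%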
The whole screen tested about 50,000 reagents; this is an unselected part. About 4,000 of all reagents (8%) count as active. 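Mouse siRNA library applied to hamster cells; one well for each siRNA.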 Reagents against one gene are numbered here.

| Gene | siRNA no. | GFP, % of control | viability (ATP), % of control | outcome |
| --- | --- | --- | --- | --- |
| Clk4 | 1 | 58.2 | 58.6 | inactive |
| Krtap15-1 | 1 | 76.9 | 91.4 | inactive |
| Krtap15-1 | 2 | 103 | 82 | inactive |
| Krtap15-1 | 3 | 77.3 | 85.8 | inactive |
| Panx2 | 1 | 45.5 | 63.9 | inactive |
| Panx2 | 2 | 99.8 | 86.9 | inactive |
| Panx2 | 3 | 117 | 90.4 | inactive |
| Gpa33 | 1 | 82.1 | 71.4 | inactive |
| Gpa33 | 2 | 97.3 | 100 | inactive |
| Or6c213 | 1 | 73.8 | 68.1 | inactive |
| Or6c213 | 2 | 60.8 | 63 | inactive |
| Or6c213 | 3 | 57.5 | 97.1 | inactive |
| Gzmn | 1 | 96.1 | 62.2 | inactive |
| Gzmn | 2 | 95.4 | 65.4 | inactive |
| Gzmn | 3 | 69.7 | 56.9 | inactive |
| Srfbp1 | 1 | 55.8 | 56.7 | inactive |
| Srfbp1 | 2 | 75.4 | 50.1 | inactive |
| Srfbp1 | 3 | 84.9 | 66.3 | inactive |
| Nrip3 | 1 | 94.9 | 96.4 | inactive |
| Nrip3 | 2 | 66.9 | 79.3 | inactive |
| Nrip3 | 3 | 88.9 | 96.9 | inactive |
| Or52b4 | 1 | 65.3 | 72.8 | inactive |
| Or52b4 | 2 | 81.8 | 87.6 | inactive |
| Or52b4 | 3 | 71 | 80.8 | inactive |
| Galr1 | 1 | 188 | 86.8 | active |
| Galr1 | 2 | 62.6 | 65.3 | inactive |
| Galr1 | 3 | 72.4 | 56.3 | inactive |
| Cpxm1 | 1 | 58.1 | 52.9 | inactive |
| Cpxm1 | 2 | 53.9 | 42.1 | inactive |
| Cpxm1 | 3 | 43.9 | 54.1 | inactive |
| Hcrtr2 | 1 | 43.1 | 47.8 | inactive |
| Hcrtr2 | 2 | 73.2 | 69.3 | inactive |
| Hcrtr2 | 3 | 46.2 | 60.5 | inactive |
| Noct | 1 | 41.8 | 46.9 | inactive |
| Noct | 2 | 129 | 91.9 | active |
| Noct | 3 | 117 | 111 | inactive |
| Rab4a | 1 | 225 | 108 | active |
| Rab4a | 2 | 90 | 76 | inactive |
| Rab4a | 3 | 91.2 | 74.1 | inactive |
| Zfp60 | 1 | 73.6 | 74.4 | inactive |
| Zfp60 | 2 | 50 | 68.2 | inactive |
| Zfp60 | 3 | 82.5 | 91.6 | inactive |
| Zfp60 | 4 | 96 | 99 | inactive |
| Zfp60 | 5 | 74.8 | 80.5 | inactive |
| Zfp60 | 6 | 72.3 | 90.6 | inactive |
| Crybg3 | 1 | 65.1 | 45.3 | inactive |
| Crybg3 | 2 | 78 | 73.2 | inactive |
| Crybg3 | 3 | 69.1 | 97.1 | inactive |
| Map3k5 | 1 | 70.7 | 73.8 | inactive |
| Tmem65 | 1 | 44.1 | 60.9 | inactive |
| Tmem65 | 2 | 51.5 | 67.6 | inactive |
| Tmem65 | 3 | 80.5 | 99.5 | inactive |
| Comp | 1 | 93.1 | 115 | inactive |
| Comp | 2 | 87.1 | 86 | inactive |
| Per2 | 1 | 41.2 | 40.4 | inactive |
| Per2 | 2 | 55.9 | 77.6 | inactive |
| Per2 | 3 | 79.9 | 93.3 | inactive |

Targets listed so far whose target name starts with S or s:
| Gene | siRNA no. | GFP, % of control | viability (ATP), % of control | outcome |
| --- | --- | --- | --- | --- |
| Srfbp1 | 1 | 55.8 | 56.7 | inactive |
| Srfbp1 | 2 | 75.4 | 50.1 | inactive |
| Srfbp1 | 3 | 84.9 | 66.3 | inactive |
